# Screening data

The results are deposited in PubChem (AID1159506; NCATS, 2015).

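Luminescence from an EWS-FLI1 target-promoter (NR0B1) reporter, set against a CMV-promoter reporter, two days after silencing single genes in TC32 Ewing sarcoma cells. Each siRNA was applied at 20 nM. A z-score of the log NR0B1-over-CMV signal, less the median of siRNAs with the same seed; more negative means a stronger specific loss of the NR0B1 reporter.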

This is part of the screen; most of the strongest results are not listed here. Sequences are the guide (antisense) strand, without overhang.

{"sequence": "UGCAUUUGAAGUACUCUUC", "gene": "RPS12P4", "seed-corrected z-score": "0.189"}
{"sequence": "UUCUUGACCUAGAUGAUCG", "gene": "SPANXN1", "seed-corrected z-score": "-1.032"}
{"sequence": "AUUCUUUCAGGUAUCAACC", "gene": "CMC2", "seed-corrected z-score": "-0.2385"}
{"sequence": "AAAGGUGAUACAAAUGUGG", "gene": "POLR3GL", "seed-corrected z-score": "1.042"}
{"sequence": "UAAUUCGAAAGUUCAAUCC", "gene": "KNG1", "seed-corrected z-score": "0.1169"}
{"sequence": "UUUCAGACAUUCGAUAAUC", "gene": "GLG1", "seed-corrected z-score": "-0.3784"}
{"sequence": "UUAUCUCUUGGAUCAUAGC", "gene": "UBQLNL", "seed-corrected z-score": "-0.0145"}
{"sequence": "UAUCUUGUAAUCAGCAUGC", "gene": "LEFTY2", "seed-corrected z-score": "0.7998"}
{"sequence": "UUUCUCUUCACGAGAGUCC", "gene": "DNAI1", "seed-corrected z-score": "0.1104"}
{"sequence": "UUGCGGAAAAUUUUCAGGG", "gene": "PDIA4", "seed-corrected z-score": "-0.7776"}
{"sequence": "UAGAUGUACUCGGAUGCCG", "gene": "THAP7", "seed-corrected z-score": "0.7213"}
{"sequence": "UUAUUUCGAGCCUUUACCC", "gene": "FCHSD2", "seed-corrected z-score": "0.7266"}
{"sequence": "UAUAGGUUGAGAGCAGAUU", "gene": "ANKRD33", "seed-corrected z-score": "-0.2471"}
{"sequence": "UGCAGAUCCAGUAAUUGUC", "gene": "CLEC4M", "seed-corrected z-score": "0.7748"}
{"sequence": "UAACCGUCCAGCUUGUGCA", "gene": "ADAM11", "seed-corrected z-score": "0.2109"}
{"sequence": "ACUAUUUACAACCUGCAGC", "gene": "CCNO", "seed-corrected z-score": "0.5379"}
{"sequence": "CAUGCUGUUCUCUGCGUCC", "gene": "SCT", "seed-corrected z-score": "1.405"}
{"sequence": "AAUAGGAACCACAUUGUUG", "gene": "RAB11A", "seed-corrected z-score": "-0.4881"}
{"sequence": "AGAGGAGUGAUAGGGAUGC", "gene": "RPS24P4", "seed-corrected z-score": "-0.4692"}
{"sequence": "UCAGAGAACAGUGGUAGGG", "gene": "AKNA", "seed-corrected z-score": "-0.6325"}
{"sequence": "UUCUUUCUCAUUUAGGGUG", "gene": "TREML3P", "seed-corrected z-score": "-0.7221"}
{"sequence": "AACCACUCAAUAAAUACAC", "gene": "HAPLN3", "seed-corrected z-score": "0.1323"}
{"sequence": "UUCAUAUCGACACUGACUC", "gene": "ACOT13", "seed-corrected z-score": "-0.8989"}
{"sequence": "UCCCUGAUAUAUACUCUGC", "gene": "YBX1P6", "seed-corrected z-score": "0.2946"}
{"sequence": "UUUGAACGAAGAUAAUCUG", "gene": "PAFAH1B1", "seed-corrected z-score": "-0.298"}
{"sequence": "UUCUUCGCAAAAUCUGAUG", "gene": "SORT1", "seed-corrected z-score": "0.7298"}
{"sequence": "AUACUGACGGUUGUGAACG", "gene": "OR6C1", "seed-corrected z-score": "-0.6232"}
{"sequence": "UAUCCGCUCUAGAUGAUGC", "gene": "LRRC4C", "seed-corrected z-score": "0.7155"}
{"sequence": "UCAGGUAUAGAUAUGUCGG", "gene": "SCGB2A1", "seed-corrected z-score": "-1.205"}
{"sequence": "UAAGAAAACAGAGGUUUCC", "gene": "NPIPB7", "seed-corrected z-score": "-0.6331"}
{"sequence": "AAAGGGCAUAUGUUCCACU", "gene": "HMHB1", "seed-corrected z-score": "-0.5522"}
{"sequence": "UCAGGUUAUCCAGAUGAGC", "gene": "ZNF513", "seed-corrected z-score": "0.3135"}
{"sequence": "UAUCUUGGUCUGGACAUCU", "gene": "ATF6B", "seed-corrected z-score": "-0.5811"}
{"sequence": "UCGGUGAUGAUGUCGAACG", "gene": "PRKCZ", "seed-corrected z-score": "-0.7158"}
{"sequence": "UUCCCGUCAUUCCAAAUCC", "gene": "GABRG3", "seed-corrected z-score": "-0.728"}
{"sequence": "UUCCGGAUCUGGUUCAAGC", "gene": "BMP2K", "seed-corrected z-score": "0.0916"}
{"sequence": "UUUGUAAUCACUGAGCCCA", "gene": "CCDC71L", "seed-corrected z-score": "0.6041"}
{"sequence": "UAUGGUACAACAAAAAGAC", "gene": "TMEM183A", "seed-corrected z-score": "1.747"}
{"sequence": "UUACGGAAGAACCCACUGC", "gene": "DHX8", "seed-corrected z-score": "-0.9765"}
{"sequence": "UCUAGGAUCACGGAACUCU", "gene": "KRT126P", "seed-corrected z-score": "-0.2758"}
{"sequence": "UACCUUAUAAUUGCAACGC", "gene": "HTR2C", "seed-corrected z-score": "-1.065"}
{"sequence": "UUACAGGAUAUGUACUUGG", "gene": "BAG4", "seed-corrected z-score": "-0.6254"}
{"sequence": "UGCAGCUCCAGAGUACCGU", "gene": "PAGR1", "seed-corrected z-score": "-0.1536"}
{"sequence": "UCUGUGAGCUCAAUGAUGC", "gene": "MEX3B", "seed-corrected z-score": "-1.201"}
{"sequence": "UUGGCUUUGUAGAACUUGU", "gene": "UCN3", "seed-corrected z-score": "0.8306"}
{"sequence": "UAGGUGUAUUAAACUGAGC", "gene": "PDLIM3", "seed-corrected z-score": "-0.05819"}
{"sequence": "UUUGCACACGUCGAAAUCC", "gene": "SEC14L1", "seed-corrected z-score": "0.7769"}
{"sequence": "UUCUGGUGCUCUAUAAGCG", "gene": "ZNF835", "seed-corrected z-score": "-0.2817"}
{"sequence": "AACAUUGACGCCUUCUGGG", "gene": "LY6E", "seed-corrected z-score": "0.1712"}